Laboratory results published in patent US9211310B2, “Use of a Chinese medicine composition in preparing medicaments for treating secondary prevention of myocardial infarction” (TASLY PHARMACEUTICAL GROUP CO., LTD, priority 2010, dated 2015).
The source gives many values for each of these; only a part stands here.

Tested on: patients after acute myocardial infarction
Experiment: Angina pectoris score, total and single (frequency/attack times, duration, pain degree, dose of nitroglycerin), same clinical trial
Type: in vivo, human
Text: In order to better understand the present invention, a multi-center, randomized, double-blind, double-dummy and positive drug controlled trial had been conducted. 3508 patients who were in accordance with the diagnostic standards of AMI for 28 days to 2 years and differentiated as Qi deficiency and blood stagnation syndrome by TCM were studied. 0.5 g Chinese medicine composition prepared by the method of EXAMPLE 1 (Coded as QSYQ) was administrated half an hour after meal, 3 times per day. Aspirine was used as a positive drug. The patients were treated for 1 year and observed for 6 months.
They included the overall survival time, angina pectoris score, TCM symptom score and life quality score, where angina pectoris score, TCM symptom score and life quality score were evaluated at randomization, in 1st, 3rd, 6th, 9th, 12th month after treatment and 18th month after follow-up.
Total angina pectoris score was described on every observation period and the change of observation in comparison with baseline. T-test or Wilcoxon rank sum test were used for inter-group comparison. Grade of total score was evaluated on every observation and Wilcoxon rank sum test was used for inter-group comparison. T-test and Pairing signed rank sum test were used for analyzing the change of total score on every observation between groups in comparison with the baseline.
Single angina pectoris score was depicted on every observation time-point and the change of observation in comparison with baseline. Wilcoxon rank sum test was used for inter-group comparison. Pairing signed rank sum test was used for analyzing the change of total score on every observation between groups in comparison with the baseline.
Total angina pectoris score was described on every observation period and the change of observation in comparison with the baseline. T-test or Wilcoxon rank sum test were used for inter-group comparison. Grade of total score was evaluated on every observation and Wilcoxon rank sum test was used for inter-group comparison. T-test and Pairing signed rank sum test were used for analyzing the change of total score on every observation between groups in comparison with the baseline.
Single angina pectoris score was described on every observation time-point and the change of observation in comparison with baseline. Wilcoxon rank sum test was used for inter-group comparison. Pairing signed rank sum test was used for analyzing the change of total score on every observation between groups in comparison with the baseline.

## CC(=O)Oc1ccccc1C(=O)O [Control group, aspirine]
6 months after treatment-baseline, change 2, FAS
  change of attack times score, patients (%): (2.47%)
6 months after treatment-baseline, change 2, PP
  change of attack times score, patients (%): (1.85%)
6 months after treatment-baseline, change 3, FAS
  change of attack times score, patients (%): (0.06%)
6 months after treatment-baseline, change 4, FAS
  change of attack times score, patients (%): (0.11%)
6 months after treatment-baseline, change 4, PP
  change of attack times score, patients (%): (0.14%)
9 months after treatment-baseline, change 0, FAS
  change of attack times score, patients (%): (50.32%)
9 months after treatment-baseline, change 0, PP
  change of attack times score, patients (%): (47.64%)
9 months after treatment-baseline, change 1, FAS
  change of attack times score, patients (%): (2.98%)
9 months after treatment-baseline, change 1, PP
  change of attack times score, patients (%): (2.43%)
9 months after treatment-baseline, change 2, FAS
  change of attack times score, patients (%): (2.01%)
9 months after treatment-baseline, change 2, PP
  change of attack times score, patients (%): (1.53%)
9 months after treatment-baseline, change 3, FAS
  change of attack times score, patients (%): (0.06%)
9 months after treatment-baseline, change 4, FAS
  change of attack times score, patients (%): (0.06%)
9 months after treatment-baseline, change 4, PP
  change of attack times score, patients (%): (0.07%)
9 months after treatment-baseline, change 6, FAS
  change of attack times score, patients (%): (0.06%)
9 months after treatment-baseline, change 6, PP
  change of attack times score, patients (%): (0.07%)
9 months after treatment-baseline, change −1, FAS
  change of attack times score, patients (%): (20.20%)
9 months after treatment-baseline, change −1, PP
  change of attack times score, patients (%): (21.91%)
9 months after treatment-baseline, change −2, FAS
  change of attack times score, patients (%): (20.60%)
9 months after treatment-baseline, change −2, PP
  change of attack times score, patients (%): (22.26%)
9 months after treatment-baseline, change −3, FAS
  change of attack times score, patients (%): (0.86%)
9 months after treatment-baseline, change −3, PP
  change of attack times score, patients (%): (1.04%)
9 months after treatment-baseline, change −4, FAS
  change of attack times score, patients (%): (2.47%)
9 months after treatment-baseline, change −4, PP
  change of attack times score, patients (%): (2.70%)
9 months after treatment-baseline, change −5, FAS
  change of attack times score, patients (%): (0.00%)
9 months after treatment-baseline, change −5, PP
  change of attack times score, patients (%): (0.00%)
9 months after treatment-baseline, change −6, FAS
  change of attack times score, patients (%): (0.40%)
9 months after treatment-baseline, change −6, PP
  change of attack times score, patients (%): (0.35%)
